In PubChem BioAssay AID540256 (National Center for Advancing Translational Sciences (NCATS), 2011):
The whole screen tested about 300,000 compounds, of which about 3,700 (1.2%) were called active. Inconclusive results, whose numbers are uncertain, are shown with a selection of clear calls. Calls follow the shape of the full dose curve; tested in HEK293 cells. Where the call is inconclusive, the potency comes from a doubtful curve fit.

Assay: qHTS for Inhibitors of binding or entry into cells for Lassa Virus; also: nearly all actives have a fitted effect of over 50% in size
Conditions: Lassa virus pseudotype entry inhibition, cell reporter; activity change, negative = inhibition: at 37.9 µM (top of the series) unless noted
% is scaled to controls: 0 for no effect and ±100 for the full control effect; potency is read from the fitted curve at half-maximal effect.

Row | Compound | Potency | activity change, negative = inhibition
1 | Cc1ccc(/C=N/NC(=O)c2cccs2)o1 | inconclusive: 23.1 µM [activator, single point] | 
2 | Cc1ccnc2nc(C(=O)Nc3nc4ccccc4s3)nn12 | inconclusive: 12.6 µM [inhibitor, single point] | 
3 | Cc1nn(-c2ccccc2)nc1C(=O)Nc1ccc2c(c1)OCCO2 |  | inactive: 24.3% [at 46.1 µM]
4 | O=c1ccc(NS(=O)(=O)c2ccc(Cl)cc2)cn1Cc1ccc(Cl)c(Cl)c1 | inconclusive: 0.259 µM [inhibitor, single point] | 
5 | COc1ccc(C=C(C(=O)O)c2ccc(OC)cc2)cc1 | inconclusive: 4.47 µM [activator, partial curve, poor fit] | 
6 | CC(=O)c1c(C)nc2nc(-c3ccccc3)nn2c1C |  | inactive: 28.1% [at 46.1 µM]
7 | COc1ccc(CCNC(=O)c2csc3c2CCCC3)cc1 | inconclusive: 11.2 µM [inhibitor, single point] | 
8 | COC(=O)C1=C(CS(=O)(=O)c2cc(Cl)ccc2OC)NC(=O)NC1c1ccccc1 (configuration not stated) |  | inactive: 6.26% [at 46.1 µM]
9 | CCCCN(CCCC)S(=O)(=O)c1ccc(C(=O)Nc2nnc(COC)o2)cc1 | inconclusive: 17.8 µM [inhibitor, single point] | 
10 | CC1CC(C)CN(S(=O)(=O)c2ccc(C(=O)NCc3ccco3)cc2)C1 (configuration not stated) | inconclusive: 4.47 µM [inhibitor, full curve] | 
11 | C/C(=N\Nc1ccc(C(=O)O)cc1)c1ccc2c(c1)Nc1ccccc1S2 | inconclusive: 11.2 µM [inhibitor, partial curve, poor fit] | 
12 | COc1cccc(CSc2nnc(C(F)(F)F)n2Cc2ccc(F)cc2)c1 | inconclusive: 29.1 µM [activator, single point] | 
13 | COc1ccc(CNC(=O)c2cnc3sc(N4CCCC4)nn3c2=O)cc1OC |  | inactive: -8.45% [at 46.1 µM]
14 | O=C(CSc1c2c(nc3ccc(Cl)cc13)CCCC2)N1CCN(c2cccc(Cl)c2)CC1 | inconclusive: 35.5 µM [inhibitor, partial curve, poor fit] | 
15 | COc1cc(/C=N/N=C2/NC(=O)C(Cc3ccccc3)S2)ccc1O (configuration not stated) | inconclusive: 1.03 µM [inhibitor, full curve, poor fit] | 
16 | Cc1ccc2c(c1)C(c1ccc(F)cc1)N(C(=O)COc1ccc(Cl)cc1Cl)CC(=O)N2 (configuration not stated) | inconclusive: 3.55 µM [inhibitor, partial curve, poor fit] | 
17 | CCN(CCCNC(=O)c1cc2c(=O)n(C)c3ccccc3c2s1)Cc1ccccc1 |  | inactive: 1.76% [at 46.1 µM]
18 | Cc1cccc(NC(=O)c2ccc(N(Cc3ccccc3)S(C)(=O)=O)cc2)c1 | inconclusive: 11.2 µM [inhibitor, partial curve, poor fit] | 
19 | O=C(Nc1nnc(SCC(=O)N2CCCCC2)s1)c1ccccc1F | inconclusive: 35.5 µM [inhibitor, single point] | 
20 | O=C(Nc1ccc(S(=O)(=O)N2CCCCC2)cc1)c1ccccc1F | inconclusive: 6.31 µM [inhibitor, partial curve] | 
21 | COc1ccccc1C(=O)NCC(=O)OCC(=O)Nc1cccc(S(=O)(=O)N(C)C)c1 | inconclusive: 0.562 µM [inhibitor, full curve, poor fit] | 

Row | Compound | Potency | activity change, negative = inhibition
22 | CC1CCN(C(=O)CN(Cc2ccc(Cl)cc2)S(C)(=O)=O)CC1 | inconclusive: 31.6 µM [inhibitor, partial curve, poor fit] | 
23 | C=CCc1ccc(OCCCCN2CCC(C)CC2)c(OC)c1 | inconclusive: 16.4 µM [inhibitor, single point] | 
24 | O=C1CCCC(O)=C1N=Nc1cccc(C(=O)O)c1 | inconclusive: 7.08 µM [inhibitor, full curve, poor fit] | 
25 | Cc1cccc(NC(=O)c2ccc(C(=O)c3ccccc3)o2)c1 |  | inactive: -2.62%
26 | O=C(NNc1nc2ccc(Cl)cc2s1)c1cc(-c2cccs2)nc2ccccc12 |  | inactive: -23.3%
27 | COc1ccc(N)c2c1C(=O)c1ccccc1C2=O | inconclusive: 35.5 µM [activator, single point] | 
28 | O=C(N/N=C/c1ccc(O)cc1)c1ccc(NC(=O)c2ccccc2Br)cc1 | active: 2.51 µM | 
29 | O=C(Nc1nc(-c2ccccc2)cs1)c1ccccc1NS(=O)(=O)c1ccc(F)cc1 | active: 3.66 µM | 
30 | COc1ccc(C)cc1S(=O)(=O)N(CC(=O)Nc1cccc([N+](=O)[O-])c1)c1ccc(C)c(C)c1 |  | inactive: -0.238%
31 | CCc1ccc2c(c1)c(=O)c(S(=O)(=O)c1ccc(F)cc1)cn2CC(=O)Nc1ccc(C)cc1C | inconclusive: 35.5 µM [activator, single point] | 
32 | Cc1ccc(S(=O)(=O)N(CC(=O)NCCSc2ccccn2)c2ccc(C)c(C)c2)cc1 | inconclusive: 15.8 µM [inhibitor, single point] | 
33 | Cc1ccc(NC(=O)CSCC(=O)Nc2cc(C(F)(F)F)ccc2N2CCOCC2)cc1 |  | inactive: -5.42%
34 | COc1ccc(-c2cc(-c3cc(C)ccc3O)[nH]n2)cc1 | inconclusive: 6.31 µM [inhibitor, full curve] | 
35 | COC(=O)Nc1nc2ccc(Oc3ccc(NC(=O)Nc4cccc(Cl)c4)cc3)cc2[nH]1 | active: 6.28 µM | 
36 | NS(=O)(=O)c1ccc(NC(=O)COC(=O)c2cn(-c3ccccc3)nc2-c2ccc(F)cc2)cc1 | inconclusive: 16.4 µM [inhibitor, single point] | 
37 | CC(C)C(=O)N1CCN(c2ccccc2NC(=O)c2ccc(Br)o2)CC1 |  | inactive: -17.7% [at 46.1 µM]
38 | Cc1cc(C)n(-c2ccc(C(=O)OCC(=O)Nc3cc(Cl)ccc3[N+](=O)[O-])cc2)n1 |  | inactive: -5.98%
39 | CC(C)(Oc1ccc(Cl)cc1)C(=O)NC1=NN(c2ccccc2)C(=O)C1 | inconclusive: 20 µM [inhibitor, partial curve, poor fit] | 
40 | CCc1ccc2nc(N(CCCN(C)C)C(=O)c3ccc(S(=O)(=O)N4CCCc5ccccc54)cc3)sc2c1 | active: 12.6 µM | 
41 | COc1ccccc1CNC(=O)C1CCCN(S(=O)(=O)c2ccc3c(c2)CCCN3C(C)=O)C1 (configuration not stated) | inconclusive: 2 µM [inhibitor, full curve] | 
42 | CCc1ccc(-c2nc(CN3CCC(C(=O)N4CCN(c5ccccn5)CC4)CC3)c(C)o2)cc1 | inconclusive: 18.3 µM [inhibitor, single point] | 

Quoted from the listing.
Under Potency, COc1ccc(-c2cc(-c3cc(C)ccc3O)[nH]n2)cc1 shows inconclusive: 6.31 µM [inhibitor, full curve]
Under activity change, negative = inhibition, Cc1ccc(NC(=O)CSCC(=O)Nc2cc(C(F)(F)F)ccc2N2CCOCC2)cc1 shows inactive: -5.42%
Under activity change, negative = inhibition, O=C(NNc1nc2ccc(Cl)cc2s1)c1cc(-c2cccs2)nc2ccccc12 shows inactive: -23.3%
